Laboratory results reported in PubChem BioAssay AID248 (DTP/NCI, 2004).
The list shows only some results of the screen, not a fair sample: it gathers tests that were run many times, whatever their T/C, doses with no T/C, and many T/C values between a quarter and a half above the control. Other doses and runs of a compound stand elsewhere. T/C gives the treated animals as a percentage of the vehicle group. Some doses have a count of surviving animals in place of a T/C: the source holds a T/C of zero for them, seemingly a mark for toxic or unscored doses. Some doses without a T/C left all or most animals alive at the check, yet need not have been tolerated: the source hardly ever lists a survival T/C far under the control, and the zero likely stands for such cases as well. Counts of survivors are from the toxicity check (mostly the fifth day) where no day follows; animals may have died later. Schedules are NCI's codes, taken here to give the interval after Q, in days (D) or hours (H), and the number of doses after X. Some schedule codes hold Z or #, which are not explained here. For survival time, the PubChem record calls one and a half times the control and up active, and a quarter to a half above the control has no call in these data; cut-offs in other NCI protocols can differ. Some T/C values are followed by the survivors on the day toxicity was checked, most often the fifth; where none is given, no animal had died by that day. Some entries hold several experiments; the values are given in rising order.

Test system: L1210 leukemia ip in BDF1 mice, survival T/C
Assay: NCI In Vivo Anticancer Drug Screen. Data for tumor model L1210 Leukemia (intraperitoneal) in B6D2F1 (BDF1) mice
Conditions: T/C endpoint: mean survival time, higher T/C = longer survival
[1] = dose: 400.0 mg/kg/injection, schedule: Q01DX001 (ip), vehicle: saline
[2] = dose: 200.0 mg/kg/injection, schedule: Q04DX003 (ip), vehicle: Klucel (hydroxypropylcellulose) (HPC)
[3] = dose: 400.0 mg/kg/injection, schedule: Q01DX009 (ip), vehicle: Klucel (hydroxypropylcellulose) (HPC)
[4] = dose: 400.0 mg/kg/injection, schedule: Q04DX003 (ip), vehicle: Klucel (hydroxypropylcellulose) (HPC)
[5] = dose: 200.0 mg/kg/injection, schedule: Q04DX003 (ip), vehicle: saline with Tween-80
[6] = dose: 100.0 mg/kg/injection, schedule: Q04DX002 (ip), vehicle: Klucel (hydroxypropylcellulose) (HPC)
[7] = dose: 400.0 mg/kg/injection, schedule: Q04DX002 (ip), vehicle: Klucel (hydroxypropylcellulose) (HPC)
[8] = dose: 200.0 mg/kg/injection, schedule: Q01DX009 (ip), vehicle: saline with Tween-80
[9] = dose: 400.0 mg/kg/injection, schedule: Q04DX003 (ip), vehicle: saline with Tween-80
[10] = dose: 400.0 mg/kg/injection, schedule: Q04DX003 (ip), vehicle: saline
[11] = dose: 400.0 mg/kg/injection, schedule: Q01DX009 (ip), vehicle: gum acacia

## O=C(Nc1ccc(C2=NCCN2)cc1)Nc1cccc(NC(=O)Nc2ccc(C3=NCCN3)cc2)c1
dose: 3.75 mg/kg/injection, schedule: Q#A X Z (ip), vehicle: carboxymethylcellulose (CMC)
  T/C: 125 % of control
dose: 15.0 mg/kg/injection, schedule: Q01DX Z (ip), vehicle: carboxymethylcellulose (CMC)
  T/C: 147 % of control
dose: 45.0 mg/kg/injection, schedule: Q03DX Z (ip), vehicle: carboxymethylcellulose (CMC)
  T/C: 147 % of control
dose: 52.5 mg/kg/injection, schedule: Q07DX Z (ip), vehicle: carboxymethylcellulose (CMC)
  T/C: 125 % of control
dose: 100.0 mg/kg/injection, schedule: Q01DX001 (ip), vehicle: carboxymethylcellulose (CMC)
  T/C: 130 % of control
dose: 105.0 mg/kg/injection, schedule: Q07DX Z (ip), vehicle: carboxymethylcellulose (CMC)
  T/C: 145 % of control
dose: 200.0 mg/kg/injection, schedule: Q01DX001 (ip), vehicle: carboxymethylcellulose (CMC)
  T/C: 145 % of control

## c1c[nH]c(C2Nc3ccccc3S2)c1 (configuration not stated)
[1]
  survivor count: 3 of 6

## O=NN(CCCl)C(=O)N[C@@H]1CCCC[C@H]1O
dose: 3.6 mg/kg/injection, schedule: Q01DX001 (ip), vehicle: saline with Tween-80
  T/C: 141 % of control
dose: 40.0 mg/kg/injection, schedule: Q01DX001 (ip), vehicle: saline with Tween-80
  survivor count: 9 of 10
dose: 45.0 mg/kg/injection, schedule: Q01DX001 (ip), vehicle: saline with Tween-80
  survivor count: 9 of 10
dose: 60.0 mg/kg/injection, schedule: Q01DX001 (ip), vehicle: saline with Tween-80
  survivor count: 7 of 10
dose: 90.0 mg/kg/injection, schedule: Q01DX001 (ip), vehicle: saline with Tween-80
  survivor count: 8 of 10
dose: 133.0 mg/kg/injection, schedule: Q01DX001 (ip), vehicle: saline with Tween-80
  survivor count: 6 of 10
dose: 200.0 mg/kg/injection, schedule: Q01DX001 (ip), vehicle: saline with Tween-80
  survivor count: 0 of 10

## COC(C)c1cnccc1/C(C)=C1/Nc2ccccc2C1=O (configuration not stated)
[2]
  survivor count: 6 of 6

## O=C(N/N=C/c1ccco1)c1cccnc1
[3]
  survivor count: 2 of 6

## Cc1ccc(N2CCN(CCCN3CCN(c4ccccc4Cl)CC3)CC2)cc1
dose: 6.25 mg/kg/injection, schedule: Q04DX003 (ip), vehicle: saline
  survivor count: 6 of 6
dose: 100.0 mg/kg/injection, schedule: Q04DX003 (ip), vehicle: Klucel (hydroxypropylcellulose) (HPC)
  survivor count: 6 of 6
[2]
  survivor count: 1 of 6
[4]
  survivor count: 0 of 6

## O=P(O)(O)c1ccccc1
dose: 400.0 mg/kg/injection, schedule: Q01DX001 (ip), vehicle: carboxymethylcellulose (CMC)
  survivor count: 3 of 4

## CCCCCCCCCC(C)CC1CCCCC1 (configuration not stated)
dose: 400.0 mg/kg/injection, schedule: Q01DX001 (ip), vehicle: saline with Tween-80
  survivor count: 6 of 6

## O=C(OCC(O)C1OC(c2ccccc2)OC1C(O)COC(=O)c1ccccc1)c1ccccc1 (configuration not stated)
[5]
  survivor count: 1 of 1

## COc1ccc2c(c1)[nH]c1c(C)nccc12
dose: 450.0 mg/kg/injection, schedule: Q01DX Z (ip), vehicle: saline
  survivor count: 1 of 6

## Brc1nc(-c2ccccc2)c(-c2ccccc2)nc1Br
dose: 50.0 mg/kg/injection, schedule: Q01DX001 (ip), vehicle: saline
  survivor count: 4 of 4

## CC(=O)OCC1OC(n2cnc3c(=S)nc[nH]c32)C(OC(C)=O)C1OC(C)=O (configuration not stated)
dose: 26.0 mg/kg/injection, schedule: Q01DX Z (ip), vehicle: carboxymethylcellulose (CMC)
  T/C: 134 % of control
dose: 60.0 mg/kg/injection, schedule: Q01DX Z (ip), vehicle: carboxymethylcellulose (CMC)
  T/C: 142 % of control
dose: 90.0 mg/kg/injection, schedule: Q01DX Z (ip), vehicle: carboxymethylcellulose (CMC)
  T/C: 136 % of control

## CC1(C)C2CCC1(CBr)C(=O)C2 (configuration not stated)
[6]
  survivor count: 3 of 3
[7]
  survivor count: 3 of 3

## CCCCN1CC1CC (configuration not stated)
dose: 200.0 mg/kg/injection, schedule: Q01DX001 (ip), vehicle: Klucel (hydroxypropylcellulose) (HPC)
  survivor count: 0 of 6
dose: 400.0 mg/kg/injection, schedule: Q01DX001 (ip), vehicle: Klucel (hydroxypropylcellulose) (HPC)
  survivor count: 0 of 6

## CC/C(C)=N/NCCO
dose: 50.0 mg/kg/injection, schedule: Q01DX009 (ip), vehicle: saline
  survivor count: 3 of 6
dose: 100.0 mg/kg/injection, schedule: Q01DX001 (ip), vehicle: saline
  survivor count: 0 of 3
dose: 200.0 mg/kg/injection, schedule: Q01DX001 (ip), vehicle: saline
  survivor count: 0 of 3

## NCC(=O)NC(CCCC(N)C(=O)OCc1ccccc1)C(=O)O (configuration not stated)
dose: 75.0 mg/kg/injection, schedule: Q04DX003 (ip), vehicle: Klucel (hydroxypropylcellulose) (HPC)
  survivor count: 3 of 6
dose: 150.0 mg/kg/injection, schedule: Q04DX003 (ip), vehicle: Klucel (hydroxypropylcellulose) (HPC)
  survivor count: 1 of 6
dose: 300.0 mg/kg/injection, schedule: Q04DX003 (ip), vehicle: Klucel (hydroxypropylcellulose) (HPC)
  survivor count: 0 of 6

## O=C(OCc1ccccc1CN1CCOCC1)c1cccc(Br)c1
[6]
  T/C: 141 % of control

## CC(=O)OC1OC(CF)C(OC(C)=O)C1OC(C)=O (configuration not stated)
[8]
  survivor count: 3 of 6
dose: 400.0 mg/kg/injection, schedule: Q01DX009 (ip), vehicle: saline with Tween-80
  survivor count: 3 of 6

## c1ccc(-c2c3ccccc3c(-c3ccccc3)c3c2ccc2ccccc23)cc1
dose: 100.0 mg/kg/injection, schedule: Q01DX009 (ip), vehicle: Klucel (hydroxypropylcellulose) (HPC)
  survivor count: 3 of 3

## CC(C)(C)C1CCC([N+](=O)[O-])CC1 (configuration not stated)
dose: 150.0 mg/kg/injection, schedule: Q01DX001 (ip), vehicle: other
  survivor count: 3 of 6
dose: 300.0 mg/kg/injection, schedule: Q01DX001 (ip), vehicle: other
  survivor count: 0 of 6

## CC(C)CC(C=O)(CCN(C)C)c1cccc2ccccc12 (configuration not stated)
dose: 100.0 mg/kg/injection, schedule: Q04DX003 (ip), vehicle: saline with Tween-80
  survivor count: 1 of 6
[5]
  survivor count: 0 of 6
[9]
  survivor count: 0 of 6

## CCN(CC)CCCNc1cc(C)c(C)cc1[N+](=O)[O-]
dose: 200.0 mg/kg/injection, schedule: Q04DX003 (ip), vehicle: saline
  survivor count: 2 of 6
[10]
  survivor count: 0 of 6

## CCOC(=O)N/N=C(/C)c1cccc([N+](=O)[O-])c1
dose: 200.0 mg/kg/injection, schedule: Q01DX009 (ip), vehicle: Klucel (hydroxypropylcellulose) (HPC)
  survivor count: 0 of 6
[3]
  survivor count: 0 of 6

## Nc1nc(N)nc(-c2ccncc2)n1
dose: 100.0 mg/kg/injection, schedule: Q01DX009 (ip), vehicle: saline with Tween-80
  survivor count: 0 of 3
[8]
  survivor count: 0 of 3

## c1ccc(C2C(c3ccccc3)N2C23CC4CC(CC(C4)C2)C3)cc1 (configuration not stated)
[4]
  survivor count: 6 of 6

## O=C(O)C1CC2c3ccccc3C1c1ccccc12 (configuration not stated)
[2]
  survivor count: 6 of 6
[4]
  survivor count: 6 of 6

## COC1=C(N)C(=O)C(OC)=C(N)C1=O
[1]
  survivor count: 0 of 4

## CCCCOC(=O)c1ccc(OC(=O)NC(C)(C)C)cc1
dose: 100.0 mg/kg/injection, schedule: Q01DX009 (ip), vehicle: gum acacia
  T/C: 96, 106, 115, 121 % of control
dose: 200.0 mg/kg/injection, schedule: Q01DX009 (ip), vehicle: gum acacia
  T/C: 91, 109, 118, 125 % of control
[11]
  T/C: 86, 87, 89 % of control [5 of 6 alive]
  survivor count: 3 of 3

## COC(=O)c1[nH]cnc1N1CC[N+](CCCl)=N1
dose: 300.0 mg/kg/injection, schedule: Q01DX001 (ip), vehicle: saline
  survivor count: 2 of 6

## c1ccc2c(c1)ccc1cc3cc4cc5c(ccc6ccccc65)cc4cc3cc12
[6]
  survivor count: 3 of 3

## O=S1(=O)CC2(C1)OCCO2
[7]
  survivor count: 0 of 3

## CN(C)CCOC(=O)c1ccc(N)cc1
[10]
  survivor count: 2 of 6

## CCOC(=O)c1cnc(SC)nc1N(C)C
[9]
  survivor count: 2 of 6
